Experiment [1] deals with GFP-dynamin 2 GTPase domain (UniProt P39052). In words: co-IP; GFP-trap pulldown: extracts of cotransfected HEK293 cells in lysis buffer incubated with 10 µl GFP-trap agarose beads, Western blot. In general terms: Immunoblotting shows a protein as a band on a membrane.
For experiment [2], the target named is GST-PICK1 (wild type) (UniProt Q9EP80). In words: pull-down; competition with purified proteins: GST-WT-PICK1 or GST-DDAA-PICK1 immobilised on glutathione agarose, incubated with 20 nM his6-Myc-GluA2 C terminus and 0–30 nM his6 α-adaptin; both purified.
The target of experiment [3] is GST-GluA2 C terminus (UniProt P19491). In words: pull-down; GST or GST fusion immobilised on glutathione agarose, incubated at 4°C with purified protein in direct binding buffer (20 mM Tris-HCl, 150 mM NaCl, 5 mM imidazole, 2 mM MgCl2, 1% Triton X-100, 1 mM DTT), Western blot; both purified.
Experiment [4] has as its target GST-α-appendage (appendage domain of α-adaptin) (UniProt P17427). Described as above.
In experiment [5] the target is GFP-PICK1 BAR domain (UniProt Q9EP80). In words: co-IP; GFP-trap pulldown: extracts of cotransfected HEK293 cells in lysis buffer incubated with 10 µl GFP-trap agarose beads, Western blot.

Sequences of proteins named here, by UniProt entry; tags and fusion partners are left off. A change or cut given only in a name is not applied to a line headed by its entry.
UniProt Q9EP80: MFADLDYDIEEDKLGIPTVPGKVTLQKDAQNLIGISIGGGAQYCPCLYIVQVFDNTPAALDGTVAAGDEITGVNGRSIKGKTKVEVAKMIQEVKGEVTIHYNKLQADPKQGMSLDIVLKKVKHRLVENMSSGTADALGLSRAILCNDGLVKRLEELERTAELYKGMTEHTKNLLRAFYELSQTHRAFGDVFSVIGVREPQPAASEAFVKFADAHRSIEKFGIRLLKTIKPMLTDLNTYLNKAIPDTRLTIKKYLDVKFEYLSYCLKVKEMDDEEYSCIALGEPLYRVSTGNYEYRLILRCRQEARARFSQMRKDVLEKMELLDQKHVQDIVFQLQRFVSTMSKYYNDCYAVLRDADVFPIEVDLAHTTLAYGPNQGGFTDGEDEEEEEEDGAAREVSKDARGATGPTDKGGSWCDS
UniProt P19491: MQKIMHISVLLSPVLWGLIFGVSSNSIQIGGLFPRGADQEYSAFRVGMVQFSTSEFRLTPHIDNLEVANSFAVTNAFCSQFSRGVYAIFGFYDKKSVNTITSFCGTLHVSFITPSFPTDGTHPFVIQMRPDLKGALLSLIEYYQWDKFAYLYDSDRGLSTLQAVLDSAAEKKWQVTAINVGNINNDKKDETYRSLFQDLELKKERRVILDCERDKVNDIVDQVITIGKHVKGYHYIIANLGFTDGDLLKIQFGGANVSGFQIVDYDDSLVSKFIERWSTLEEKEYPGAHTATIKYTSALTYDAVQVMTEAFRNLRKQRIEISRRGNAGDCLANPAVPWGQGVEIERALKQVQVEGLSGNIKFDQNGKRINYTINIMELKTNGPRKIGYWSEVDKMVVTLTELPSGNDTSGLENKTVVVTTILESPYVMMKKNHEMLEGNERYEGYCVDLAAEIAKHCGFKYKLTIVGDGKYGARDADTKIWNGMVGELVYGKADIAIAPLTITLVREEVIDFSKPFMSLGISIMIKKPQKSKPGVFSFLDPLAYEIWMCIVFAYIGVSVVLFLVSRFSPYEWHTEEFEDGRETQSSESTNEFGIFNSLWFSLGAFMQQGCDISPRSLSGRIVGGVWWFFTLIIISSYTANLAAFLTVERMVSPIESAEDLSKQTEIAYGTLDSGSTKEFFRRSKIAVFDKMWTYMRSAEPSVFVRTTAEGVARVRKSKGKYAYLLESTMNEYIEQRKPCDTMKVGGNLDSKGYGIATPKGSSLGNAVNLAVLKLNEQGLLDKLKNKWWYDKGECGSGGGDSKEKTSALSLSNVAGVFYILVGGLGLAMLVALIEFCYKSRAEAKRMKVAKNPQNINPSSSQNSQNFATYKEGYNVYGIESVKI
UniProt P17427: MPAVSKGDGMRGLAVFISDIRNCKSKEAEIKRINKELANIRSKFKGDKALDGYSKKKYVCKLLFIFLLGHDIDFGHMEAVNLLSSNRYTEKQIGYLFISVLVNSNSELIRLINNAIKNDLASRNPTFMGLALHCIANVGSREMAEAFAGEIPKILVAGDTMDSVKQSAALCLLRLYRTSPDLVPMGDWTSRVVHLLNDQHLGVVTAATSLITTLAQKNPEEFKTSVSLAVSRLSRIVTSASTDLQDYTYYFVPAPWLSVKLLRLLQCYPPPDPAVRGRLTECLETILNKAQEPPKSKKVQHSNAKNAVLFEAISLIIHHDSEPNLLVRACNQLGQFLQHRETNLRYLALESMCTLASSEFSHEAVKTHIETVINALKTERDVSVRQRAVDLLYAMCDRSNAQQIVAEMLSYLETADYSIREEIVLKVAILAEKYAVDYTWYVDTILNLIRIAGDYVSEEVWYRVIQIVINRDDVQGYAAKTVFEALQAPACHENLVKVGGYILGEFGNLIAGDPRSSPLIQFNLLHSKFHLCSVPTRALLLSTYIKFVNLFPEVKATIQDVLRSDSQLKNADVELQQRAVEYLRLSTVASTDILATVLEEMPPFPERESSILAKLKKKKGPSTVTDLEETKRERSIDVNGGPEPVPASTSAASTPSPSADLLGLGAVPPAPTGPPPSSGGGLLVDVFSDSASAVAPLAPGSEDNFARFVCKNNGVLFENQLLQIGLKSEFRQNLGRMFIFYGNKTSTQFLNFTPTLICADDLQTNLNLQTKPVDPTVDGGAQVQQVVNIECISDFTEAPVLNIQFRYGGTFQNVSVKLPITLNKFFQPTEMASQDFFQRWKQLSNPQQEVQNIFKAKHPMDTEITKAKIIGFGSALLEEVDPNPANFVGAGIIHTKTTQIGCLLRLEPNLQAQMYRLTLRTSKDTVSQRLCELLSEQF

These are yes or no findings as the source states them, for the method shown. Binding can be weak; no strength is given. For some assays here: Binding seen in cells or lysates may run through a third protein. For some assays here: Tags and fused reporters may be left off the sequences shown.

Regarding Flag-PICK1 (from UniProt Q9EP80 1-416), the binding entry in experiment [1] is on record as “binds”.
“his6 α-appendage domain (from UniProt P17427) (domain or fragment)”: the binding result in experiment [2] is “binds”.
“his6-D189A-PICK1 (from UniProt Q9EP80 1-416)”: in experiment [3], the binding entry is reported as “binds”.
On the same count and under the same terms, the result for “his6-D356A-PICK1 (from UniProt Q9EP80 1-416)” reads “binds”.
As to “his6-Myc-GluA2 C terminus (from UniProt P19491) (domain or fragment)”, in experiment [2], the binding entry is recorded as “binds”.
For “his6-PICK1 (wild type) (from UniProt Q9EP80 1-416)”, the binding entry in experiment [3] and in experiment [4] was “binds” in each case.

B1: HA-dynamin 2 (protein, UniProt P39052 1-870)
chain: MGNRGMEELIPLVNKLQDAFSSIGQSCHLDLPQIAVVGGQSAGKSSVLENFVGRDFLPRGSGIVTRRPLILQLIFSKTEYAEFLHCKSKKFTDFDEVRQEIEAETDRVTGTNKGISPVPINLRVYSPHVLNLTLIDLPGITKVPVGDQPPDIEYQIKDMILQFISRESSLILAVTPANMDLANSDALKLAKEVDPQGLRTIGVITKLDLMDEGTDARDVLENKLLPLRRGYIGVVNRSQKDIEGRKDIRAALAAERKFFLSHPAYRHMADRMGTPHLQKTLNQQLTNHIRESLPTLRSKLQSQLLSLEKEVEEYKNFRPDDPTRKTKALLQMVQQFGVDFEKRIEGSGDQVDTLELSGGARINRIFHERFPFELVKMEFDEKDLRREISYAIKNIHGVRTGLFTPDLAFEAIVKKQVVKLKEPCLKCVDLVIQELISTVRQCTSKLSSYPRLREETERIVTTYIREREGRTKDQILLLIDIEQSYINTNHEDFIGFANAQQRSTQLNKKRAIPNQGEILVIRRGWLTINNISLMKGGSKEYWFVLTAESLSWYKDEEEKEKKYMLPLDNLKIRDVEKGFMSNKHVFAIFNTEQRNVYKDLRQIELACDSQEDVDSWKASFLRAGVYPEKDQAENEDGAQENTFSMDPQLERQVETIRNLVDSYVAIINKSIRDLMPKTIMHLMINNTKAFIHHELLAYLYSSADQSSLMEESAEQAQRRDDMLRMYHALKEALNIIGDISTSTVSTPVPPPVDDTWLQNTSSHSPTPQRRPVSSVHPPGRPPAVRGPTPGPPLIPMPVGATSSFSAPPIPSRPGPQNVFANNDPFSAPPQIPSRPARIPPGIPPGVPSRRAPAAPSRPTIIRPAEPSLLD
Consider B1, for which the binding result in experiment [5] is “binds”.

Values taken from article PMC5626541.
